From ChEMBL document CHEMBL3988442, “University of Dundee, Small-Polar-MMV Screening Library” (2021).

Sequences of proteins named here, by UniProt entry; tags and fusion partners are left off.
UniProt E9BF75, entry or part of it: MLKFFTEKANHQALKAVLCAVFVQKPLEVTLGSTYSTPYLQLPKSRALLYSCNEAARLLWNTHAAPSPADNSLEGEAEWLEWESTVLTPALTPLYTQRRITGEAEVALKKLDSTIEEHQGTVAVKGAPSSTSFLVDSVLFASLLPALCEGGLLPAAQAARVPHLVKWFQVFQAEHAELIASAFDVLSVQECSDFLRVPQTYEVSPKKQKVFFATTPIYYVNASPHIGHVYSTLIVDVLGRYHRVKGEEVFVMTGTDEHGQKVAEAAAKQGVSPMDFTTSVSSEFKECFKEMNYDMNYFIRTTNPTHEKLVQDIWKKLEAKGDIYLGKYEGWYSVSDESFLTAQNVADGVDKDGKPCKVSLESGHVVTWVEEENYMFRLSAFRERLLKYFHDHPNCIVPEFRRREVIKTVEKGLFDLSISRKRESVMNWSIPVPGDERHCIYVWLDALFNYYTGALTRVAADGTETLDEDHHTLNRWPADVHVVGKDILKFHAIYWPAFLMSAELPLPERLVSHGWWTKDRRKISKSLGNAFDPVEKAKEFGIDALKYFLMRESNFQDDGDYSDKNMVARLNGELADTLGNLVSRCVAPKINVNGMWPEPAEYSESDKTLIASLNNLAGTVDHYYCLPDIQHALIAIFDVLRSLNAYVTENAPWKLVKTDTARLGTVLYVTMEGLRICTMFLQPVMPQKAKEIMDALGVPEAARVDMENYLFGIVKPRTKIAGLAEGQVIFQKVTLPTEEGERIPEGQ

All values are in %.
The controls that fix the scale are not given in the record; negative values are as filed.
The compounds are a random part of those screened.

LdMetRS: 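Primary screen of methionyl-tRNA synthetase; the read-out is not stated. Target: Methionyl-tRNA synthetase (putative), Leishmania donovani (UniProt E9BF75). The test concentration is not given. Values are per cent inhibition. Of about 68,000 compounds tested this way, about 24 (0.035%) reached 50% or more in at least one test.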
Mtb heat-shock: 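Assay on Mycobacterium tuberculosis, filed only as a heat shock assay from Cornell; the read-out is not stated. The concentration is filed as 10 mM, unlikely as a test dose, so the dose is not known. Higher reads as stronger inhibition (inferred: compounds with an IC50 in retests scored well above the rest). Of about 69,000 compounds tested this way, about 930 (1.4%) reached 50% or more in at least one test.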

Result for COCCN1CCC(CNC(=O)C2(c3cccc(Cl)c3)CC2)C1 (stereo not drawn) was LdMetRS: 22.63%; Mtb heat-shock: -5.012%.
Result for [H][C@]1([C@H](O)c2ccc(NC(=O)c3ccccc3OC)cc2)COCC(=O)N1 was Mtb heat-shock: -10.05%.
Result for Cc1nc(C2CCCNC2)cc(N2CCc3nc(N)sc3C2)n1 (stereo not drawn) was LdMetRS: 10.45%; Mtb heat-shock: -29.74%.
Result for N#Cc1ccc(NCCc2n[nH]c(=O)[nH]2)cc1Cl was LdMetRS: 19.37%; Mtb heat-shock: 3.888%.
Result for C[C@@H]1CN(c2ccc3c(Cl)ccnc3c2F)CC(C(N)=O)O1 (stereo partly drawn) was LdMetRS: 16.55%; Mtb heat-shock: 12.38%.
Result for COc1cccc2c1OCC(Cc1cnc(N)c(C)c1)C2 (stereo not drawn) was LdMetRS: 7.821%; Mtb heat-shock: -5.042%.
Result for CC(CCNC(=O)N1CCC1)N(C)C(=O)OC(C)(C)C (stereo not drawn) was LdMetRS: 2.899%; Mtb heat-shock: 13.36%.
Result for O=C(c1ccco1)N1CCCC2(CN(Cc3cccs3)CCO2)C1 (stereo not drawn) was LdMetRS: 10.75%.
Result for COC(=O)c1ccc(NC(=O)[C@@H]2CCCN2C(=O)c2ccco2)s1 was LdMetRS: 16.1%; Mtb heat-shock: 5.219%.
Result for NC(=O)c1cc(C2CCCN(CCCOc3ccccc3)C2)n[nH]1 (stereo not drawn) was LdMetRS: 9.202%; Mtb heat-shock: -20.93%.
Result for CNC(=O)[C@@H](CC(C)C)N1CCC[C@H]1C(=O)N(C)Cc1cccnc1 was LdMetRS: 13.19%.
Result for Cc1nc(C(=O)N(C)CC2CC2)nn1-c1ccccc1C(C)C was LdMetRS: 20.44%; Mtb heat-shock: 0.5986%.
Result for O=C(CCc1nc(-c2cccnc2)no1)NCC1CCN(C2CC2)C1 (stereo not drawn) was LdMetRS: 8.101%; Mtb heat-shock: 1.494%.
Result for Cc1cnc(N2CC[C@@H](N3CCOCC3)[C@@H]2Cc2ccncc2)nc1 was LdMetRS: 5.759%.
Result for COc1nc2c(cc1C(=O)N1CCCOC(CN3CCCC3)C1)CCC2 (stereo not drawn) was LdMetRS: 22.78%; Mtb heat-shock: 2.5%.
Result for CCS(=O)(=O)N1CCc2c(CN3CCOCC3)cncc2C1.Cl.Cl was Mtb heat-shock: 23.86%.
Result for O=C1CN(C(=O)C2CN(c3cccc(Cl)c3)CCO2)CCN1 (stereo not drawn) was LdMetRS: 7.764%; Mtb heat-shock: 4.772%.
Result for O=C(O)C(c1ccc2c(c1)OCCO2)N1CCC(N2CCOCC2)CC1 (stereo not drawn) was LdMetRS: 16.76%; Mtb heat-shock: -23.58%.
Result for Cc1ncsc1CCC(=O)NC1CCN(Cc2cccs2)CC1 was LdMetRS: 9.045%; Mtb heat-shock: -14.14%.
Result for CCOCC1CN(c2ncccn2)Cc2cnn(CC3CCOCC3)c21 (stereo not drawn) was LdMetRS: 0.6536%; Mtb heat-shock: -27.92%.
Result for O=C(O)C(F)(F)F.[H][C@@]12CN(C(=O)c3ccoc3C)C[C@]1([H])OCCN2c1ncccn1 was Mtb heat-shock: -2.758%.
Result for Cc1csc(C2(NCc3nc(-c4ccco4)oc3C)CCCC2)n1 was LdMetRS: 8.011%; Mtb heat-shock: -9.613%.
Result for O=S1(=O)COCCN1Cc1ccc(F)c(F)c1 was LdMetRS: 18.59%; Mtb heat-shock: 16.82%.
Result for O=C(CCn1cncn1)N1CCCC(CO)(CCCc2ccccc2)C1 (stereo not drawn) was LdMetRS: 5.136%; Mtb heat-shock: -178.6%.
Result for O=C(O)C(F)(F)F.O=C(c1ccoc1)N1CCOC2(COCCN(c3ncccn3)C2)C1 (stereo not drawn) was Mtb heat-shock: 1.036%.
Result for OC1(CNCCCN2CCCc3ccccc32)CNCCOC1 (stereo not drawn) was LdMetRS: 18.77%; Mtb heat-shock: 1.378%.
Result for O=C(c1[nH]nc(C2CC2)c1Cl)N1CCN(C2CC2)C(=O)C1 was LdMetRS: 18.09%; Mtb heat-shock: 5.265%.
Result for CN(C)c1cc(C2CCCN(S(=O)(=O)c3cn(C)cn3)C2)ccn1 (stereo not drawn) was LdMetRS: 14.84%; Mtb heat-shock: 14.79%.
Result for O=S(=O)(NCc1cc2n(n1)CCNC2)c1ccc(OC(F)(F)F)cc1 was LdMetRS: 13.77%; Mtb heat-shock: 6.24%.
Result for O=C(c1ccc(N2CCCC2)nn1)N1CCc2ccccc21 was LdMetRS: 6.475%; Mtb heat-shock: 18.28%.
Result for CN(Cc1ccncn1)C(=O)CCc1[nH]nc2c1CCCC2 was LdMetRS: 11.75%; Mtb heat-shock: -8.633%.
Result for [H][C@@]12COC[C@]1(COc1nccc(C)n1)CN(C(=O)c1cnccn1)C2 was Mtb heat-shock: -17.36%.
Result for CN1CCN(c2cc(CNC(=O)c3ccsc3)ccn2)CC1 was LdMetRS: 14.21%; Mtb heat-shock: -11.26%.
Result for CCSCCC(C)NC(=O)Nc1cccn(C)c1=O (stereo not drawn) was LdMetRS: 14.84%; Mtb heat-shock: -26.28%.
Result for O=C([C@H]1C[C@H]2OCC[C@H]2N(CCc2ccccc2)C1)N1CCCCO1 was LdMetRS: 11.11%.